The target of assay [1] is amyloid precursor protein (APP), transfected into HeLa or HEK293 cells (UniProt P05067). The assay is described as follows: α-myc co-immunoprecipitation from co-transfected HeLa cells, Western blot. Background: Immunoblotting shows a protein as a band on a membrane.
Assay [2] addresses β-CTF (C-terminal fragment of APP made by β-secretase cleavage) (UniProt P05067). Described as above.

By UniProt entry, the sequences of proteins in these tests, tags left out. Where a name states a change or a piece, a line headed by the entry shows the natural chain unless it says otherwise. Residues count along the entry.
UniProt P05067: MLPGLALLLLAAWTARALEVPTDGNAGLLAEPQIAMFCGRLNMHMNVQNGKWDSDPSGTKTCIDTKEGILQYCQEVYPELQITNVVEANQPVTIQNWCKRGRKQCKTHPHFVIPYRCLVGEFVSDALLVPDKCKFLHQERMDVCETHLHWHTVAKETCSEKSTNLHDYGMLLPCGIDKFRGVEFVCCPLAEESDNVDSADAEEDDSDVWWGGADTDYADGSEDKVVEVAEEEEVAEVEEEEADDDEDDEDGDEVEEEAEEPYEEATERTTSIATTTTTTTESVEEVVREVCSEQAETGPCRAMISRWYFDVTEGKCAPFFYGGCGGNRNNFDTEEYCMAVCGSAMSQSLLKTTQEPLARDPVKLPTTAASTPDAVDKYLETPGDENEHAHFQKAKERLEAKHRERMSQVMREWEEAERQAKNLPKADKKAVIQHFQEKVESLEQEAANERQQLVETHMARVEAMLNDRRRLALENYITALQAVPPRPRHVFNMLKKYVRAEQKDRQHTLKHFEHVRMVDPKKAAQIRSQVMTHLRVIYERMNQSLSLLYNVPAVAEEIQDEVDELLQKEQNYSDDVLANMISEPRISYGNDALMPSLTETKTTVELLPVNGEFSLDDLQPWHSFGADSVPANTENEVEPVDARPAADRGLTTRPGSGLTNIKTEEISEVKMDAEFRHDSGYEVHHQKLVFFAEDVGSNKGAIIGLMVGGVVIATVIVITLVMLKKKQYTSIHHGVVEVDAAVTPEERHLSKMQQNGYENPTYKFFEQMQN
amyloid precursor protein (APP), transfected into HeLa or HEK293 cells: residues 18-770 of P05067
β-CTF (C-terminal fragment of APP made by β-secretase cleavage): residues 672-770 of P05067

Results are given in words; binding and its absence hold for the method and conditions named. Binding seen in cells or lysates may run through a third protein. Some entries that bind do so weakly or less than the wild type.

As for “BRI2 (myc-tagged BRI2 constructs, full length and fragments progressively deleted from the COOH-terminus) (from UniProt A5A6H8 1-266)”, the binding entry in assay [1] and in assay [2] was “binds” throughout.
